This note sets out measurements from publication PMC9714371, “Haemophilus influenzae Protein D antibody suppression in a multi‐component vaccine formulation” (FEBS Open Bio, 2022).

Assay [1] addresses T1, His‐tagged outer membrane protein 26 (OMP26) (Haemophilus influenzae (NTHi)) (UniProt Q57483).
T1 sequence: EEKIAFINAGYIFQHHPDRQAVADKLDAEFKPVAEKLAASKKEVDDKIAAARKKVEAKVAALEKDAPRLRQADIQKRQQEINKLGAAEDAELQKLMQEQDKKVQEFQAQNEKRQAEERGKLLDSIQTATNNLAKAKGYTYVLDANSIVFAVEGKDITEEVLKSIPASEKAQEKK
As to the kind of experiment: pull-down; cobalt affinity purification: E. coli lysates of His-tagged OMP26 and non-tagged PD mixed 1:1, with low imidazole (15 mM) to reduce non-specific binding of non-tagged PD to the Talon beads; eluted with 150 mM imidazole; read by Coomassie-stained SDS/PAGE and, in a repeat, by immunoblot.

Assay [2] has as its target T2, His‐tagged Protein D (non‐lipidated, N‐terminal signal sequence removed) (Haemophilus influenzae (NTHi)) (UniProt Q06282).
T2 sequence: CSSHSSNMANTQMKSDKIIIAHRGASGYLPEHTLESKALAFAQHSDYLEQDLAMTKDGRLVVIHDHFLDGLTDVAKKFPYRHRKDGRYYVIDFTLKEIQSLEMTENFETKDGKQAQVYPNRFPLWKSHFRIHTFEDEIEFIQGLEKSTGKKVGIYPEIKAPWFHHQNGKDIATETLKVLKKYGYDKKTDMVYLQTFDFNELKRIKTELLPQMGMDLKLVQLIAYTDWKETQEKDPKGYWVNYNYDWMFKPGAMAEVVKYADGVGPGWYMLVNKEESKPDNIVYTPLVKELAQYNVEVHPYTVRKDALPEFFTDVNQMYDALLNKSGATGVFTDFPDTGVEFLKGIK
Nature of the assay: pull-down; cobalt affinity purification with aluminum hydroxide (500 μg/mL) added to the 1:1 mixture of E. coli lysates of non-His-tagged OMP26 and His-tagged PD; Talon column, flow-through, wash and 150 mM imidazole elution fractions on Coomassie-stained SDS/PAGE.

Assay [3] addresses T2, His‐tagged Protein D (non‐lipidated, N‐terminal signal sequence removed) (Haemophilus influenzae (NTHi)). As to the kind of experiment: pull-down; cobalt affinity purification: E. coli lysates of His-tagged PD and non-tagged OMP26 mixed 1:1, incubated with Talon cobalt beads 1 h at room temperature or overnight at 4 °C, eluted with 150 mM imidazole; read by Coomassie-stained SDS/PAGE and, in a repeat, by immunoblot with mouse antisera to PD and OMP26.

The target is the same in assay [4]. As to the kind of experiment: SEC; HiLoad 16/600 Superdex 200 pg in PBS, 0.5 mL/min; Talon-purified PD alone, OMP26 alone, or 1:1 mixture incubated 1 h at 4 °C; peak fractions on Coomassie-stained SDS/PAGE; both purified.
Assay [5] has the same target. As to the kind of experiment: native MS; nano-electrospray native MS with ion mobility (Waters Synapt G2); His-tagged proteins in 200 mM ammonium acetate pH 6.8, 5 μM; PD alone, OMP26 alone, 1:1 mixture; both purified.

No constants are given. Whether binding was seen depends on the method and setting. For some assays here: Binding seen in cells or lysates may run through a third protein. Tags and fused reporters may be left off the sequences shown.

B1: His‐tagged Protein D (non‐lipidated, N‐terminal signal sequence removed) (natural protein)
chain: CSSHSSNMANTQMKSDKIIIAHRGASGYLPEHTLESKALAFAQHSDYLEQDLAMTKDGRLVVIHDHFLDGLTDVAKKFPYRHRKDGRYYVIDFTLKEIQSLEMTENFETKDGKQAQVYPNRFPLWKSHFRIHTFEDEIEFIQGLEKSTGKKVGIYPEIKAPWFHHQNGKDIATETLKVLKKYGYDKKTDMVYLQTFDFNELKRIKTELLPQMGMDLKLVQLIAYTDWKETQEKDPKGYWVNYNYDWMFKPGAMAEVVKYADGVGPGWYMLVNKEESKPDNIVYTPLVKELAQYNVEVHPYTVRKDALPEFFTDVNQMYDALLNKSGATGVFTDFPDTGVEFLKGIK
notes: Gene bought from GenScript, in pET21a; also called PD; His‐tagged PD; source: E. coli BL‐21*, IPTG induced; not shown: His6, N-terminal, kept
Take B1: the binding entry in assay [1] is “no binding”.

B2: Non‐His‐tagged outer membrane protein 26 (OMP26) (protein, UniProt Q57483 24-197)
chain: EEKIAFINAGYIFQHHPDRQAVADKLDAEFKPVAEKLAASKKEVDDKIAAARKKVEAKVAALEKDAPRLRQADIQKRQQEINKLGAAEDAELQKLMQEQDKKVQEFQAQNEKRQAEERGKLLDSIQTATNNLAKAKGYTYVLDANSIVFAVEGKDITEEVLKSIPASEKAQEKK
Regarding B2, the binding result in assay [2] and in assay [3] was “no binding” throughout.

B3: His‐tagged outer membrane protein 26 (OMP26) (natural protein)
chain: EEKIAFINAGYIFQHHPDRQAVADKLDAEFKPVAEKLAASKKEVDDKIAAARKKVEAKVAALEKDAPRLRQADIQKRQQEINKLGAAEDAELQKLMQEQDKKVQEFQAQNEKRQAEERGKLLDSIQTATNNLAKAKGYTYVLDANSIVFAVEGKDITEEVLKSIPASEKAQEKK
notes: OMP26, 26-kDa outer membrane protein of Haemophilus influenzae, homolog of E. coli Skp; Gene bought from GenScript; Predominantly trimers by native MS and SEC, with hexamers in low abundance; also called His‐tagged OMP26; source: E. coli BL‐21*, IPTG induced; not shown: His6, N-terminal, kept
Consider B3, for which the values for the binding result in assay [4] and in assay [5] were “no binding” and “no binding (tested: 5 μM)”, respectively.
